Our source for the binding values is paper PMC5059474.

Amino acid sequences for entries named in this document (tags omitted).
UniProt P09874: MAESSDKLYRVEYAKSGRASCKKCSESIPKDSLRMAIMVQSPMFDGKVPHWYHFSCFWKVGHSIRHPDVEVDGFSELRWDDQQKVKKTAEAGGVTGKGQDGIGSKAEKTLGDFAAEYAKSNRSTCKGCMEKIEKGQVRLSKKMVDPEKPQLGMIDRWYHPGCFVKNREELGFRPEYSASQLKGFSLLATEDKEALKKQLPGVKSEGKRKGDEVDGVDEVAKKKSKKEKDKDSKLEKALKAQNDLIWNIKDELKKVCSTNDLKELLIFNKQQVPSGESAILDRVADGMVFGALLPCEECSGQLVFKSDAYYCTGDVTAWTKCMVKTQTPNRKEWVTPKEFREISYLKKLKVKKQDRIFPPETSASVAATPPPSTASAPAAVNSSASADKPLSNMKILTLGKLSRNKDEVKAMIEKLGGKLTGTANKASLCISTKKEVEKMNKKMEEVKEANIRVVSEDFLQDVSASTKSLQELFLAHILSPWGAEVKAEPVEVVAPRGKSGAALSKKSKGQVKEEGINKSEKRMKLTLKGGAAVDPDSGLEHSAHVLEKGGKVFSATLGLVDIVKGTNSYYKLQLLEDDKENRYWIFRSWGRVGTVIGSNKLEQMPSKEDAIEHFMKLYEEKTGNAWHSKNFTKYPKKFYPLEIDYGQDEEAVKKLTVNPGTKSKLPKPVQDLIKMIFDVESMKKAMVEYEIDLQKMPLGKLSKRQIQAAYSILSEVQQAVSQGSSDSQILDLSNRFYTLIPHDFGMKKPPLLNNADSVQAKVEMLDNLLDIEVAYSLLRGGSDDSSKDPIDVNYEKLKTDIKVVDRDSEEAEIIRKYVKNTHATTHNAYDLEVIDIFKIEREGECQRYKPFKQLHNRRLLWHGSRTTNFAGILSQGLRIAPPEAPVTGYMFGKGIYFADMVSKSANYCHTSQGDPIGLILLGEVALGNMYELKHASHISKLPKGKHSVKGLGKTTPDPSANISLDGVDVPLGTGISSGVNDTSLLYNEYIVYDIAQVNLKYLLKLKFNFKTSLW
UniProt Q12888: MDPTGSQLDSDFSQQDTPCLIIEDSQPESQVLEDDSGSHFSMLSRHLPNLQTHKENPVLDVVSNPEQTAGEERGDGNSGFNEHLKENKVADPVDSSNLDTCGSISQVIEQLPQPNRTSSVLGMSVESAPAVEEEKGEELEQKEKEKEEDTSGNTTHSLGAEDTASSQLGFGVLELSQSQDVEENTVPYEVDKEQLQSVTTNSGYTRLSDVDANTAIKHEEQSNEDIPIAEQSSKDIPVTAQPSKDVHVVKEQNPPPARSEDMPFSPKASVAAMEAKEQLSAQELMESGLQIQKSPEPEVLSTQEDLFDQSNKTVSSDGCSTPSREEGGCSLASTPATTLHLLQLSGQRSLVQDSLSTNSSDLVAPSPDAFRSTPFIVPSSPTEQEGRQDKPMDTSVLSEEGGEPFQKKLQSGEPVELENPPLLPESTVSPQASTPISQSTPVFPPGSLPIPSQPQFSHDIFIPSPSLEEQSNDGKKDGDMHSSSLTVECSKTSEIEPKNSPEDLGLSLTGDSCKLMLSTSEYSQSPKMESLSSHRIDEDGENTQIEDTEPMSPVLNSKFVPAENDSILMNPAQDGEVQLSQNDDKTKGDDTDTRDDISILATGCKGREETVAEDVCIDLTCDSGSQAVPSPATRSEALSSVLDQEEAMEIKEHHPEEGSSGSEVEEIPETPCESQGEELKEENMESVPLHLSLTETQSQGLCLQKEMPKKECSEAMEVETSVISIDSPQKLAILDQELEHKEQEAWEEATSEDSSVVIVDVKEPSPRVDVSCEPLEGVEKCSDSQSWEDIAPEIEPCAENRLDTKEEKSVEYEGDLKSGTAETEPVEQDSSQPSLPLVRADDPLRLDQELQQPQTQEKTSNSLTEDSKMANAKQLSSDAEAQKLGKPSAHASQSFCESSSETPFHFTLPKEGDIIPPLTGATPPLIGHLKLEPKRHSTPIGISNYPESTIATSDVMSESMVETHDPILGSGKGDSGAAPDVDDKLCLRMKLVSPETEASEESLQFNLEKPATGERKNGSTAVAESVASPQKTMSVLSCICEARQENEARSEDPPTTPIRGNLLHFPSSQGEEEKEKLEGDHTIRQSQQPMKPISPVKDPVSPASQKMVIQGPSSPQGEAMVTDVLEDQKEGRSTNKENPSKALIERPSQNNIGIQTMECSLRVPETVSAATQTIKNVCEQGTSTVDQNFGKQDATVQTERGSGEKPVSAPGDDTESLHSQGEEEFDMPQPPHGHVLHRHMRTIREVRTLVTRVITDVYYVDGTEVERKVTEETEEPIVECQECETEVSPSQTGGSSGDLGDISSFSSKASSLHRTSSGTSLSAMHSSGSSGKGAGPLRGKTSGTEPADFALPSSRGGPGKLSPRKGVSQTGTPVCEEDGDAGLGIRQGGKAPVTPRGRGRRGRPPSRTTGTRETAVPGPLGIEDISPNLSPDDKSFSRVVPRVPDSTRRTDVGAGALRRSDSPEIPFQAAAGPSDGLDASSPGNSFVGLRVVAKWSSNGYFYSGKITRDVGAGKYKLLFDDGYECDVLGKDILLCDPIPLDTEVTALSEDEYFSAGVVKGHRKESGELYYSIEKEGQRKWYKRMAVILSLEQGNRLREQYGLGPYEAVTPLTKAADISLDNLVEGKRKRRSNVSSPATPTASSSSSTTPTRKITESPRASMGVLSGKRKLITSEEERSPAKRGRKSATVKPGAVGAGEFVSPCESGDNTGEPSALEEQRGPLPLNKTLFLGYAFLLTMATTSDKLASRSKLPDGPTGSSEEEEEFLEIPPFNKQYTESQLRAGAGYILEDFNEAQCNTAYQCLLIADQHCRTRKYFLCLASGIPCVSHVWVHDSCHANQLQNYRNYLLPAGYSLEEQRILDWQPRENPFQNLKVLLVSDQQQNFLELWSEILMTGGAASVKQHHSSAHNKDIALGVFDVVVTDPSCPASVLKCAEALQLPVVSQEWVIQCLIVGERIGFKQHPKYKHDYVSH
UniProt Q06609: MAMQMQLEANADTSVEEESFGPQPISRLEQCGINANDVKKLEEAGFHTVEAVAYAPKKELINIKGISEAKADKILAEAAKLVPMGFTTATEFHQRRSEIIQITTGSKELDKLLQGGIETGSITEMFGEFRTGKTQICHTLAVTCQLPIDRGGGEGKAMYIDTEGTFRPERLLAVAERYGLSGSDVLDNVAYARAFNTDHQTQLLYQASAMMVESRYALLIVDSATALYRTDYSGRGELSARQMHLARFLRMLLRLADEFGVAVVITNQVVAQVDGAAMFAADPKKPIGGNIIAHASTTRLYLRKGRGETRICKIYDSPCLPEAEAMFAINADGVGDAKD
UniProt P18887: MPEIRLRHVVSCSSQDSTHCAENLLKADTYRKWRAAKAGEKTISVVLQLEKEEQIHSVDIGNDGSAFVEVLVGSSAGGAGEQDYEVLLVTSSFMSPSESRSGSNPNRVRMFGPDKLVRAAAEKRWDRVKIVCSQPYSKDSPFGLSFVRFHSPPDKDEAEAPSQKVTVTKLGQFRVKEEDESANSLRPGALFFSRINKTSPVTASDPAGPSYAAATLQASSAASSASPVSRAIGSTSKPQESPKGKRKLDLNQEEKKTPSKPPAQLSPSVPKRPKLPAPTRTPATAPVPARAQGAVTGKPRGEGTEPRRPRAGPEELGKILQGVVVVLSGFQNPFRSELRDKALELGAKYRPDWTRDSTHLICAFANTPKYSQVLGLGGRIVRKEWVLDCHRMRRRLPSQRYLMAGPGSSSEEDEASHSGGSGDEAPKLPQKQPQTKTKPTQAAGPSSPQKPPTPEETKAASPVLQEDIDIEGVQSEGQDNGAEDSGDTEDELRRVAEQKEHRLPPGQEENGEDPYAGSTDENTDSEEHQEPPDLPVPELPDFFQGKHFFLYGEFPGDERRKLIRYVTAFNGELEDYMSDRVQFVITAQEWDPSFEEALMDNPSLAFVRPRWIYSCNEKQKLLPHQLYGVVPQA

Results are given in words; binding and its absence hold for the method and conditions named. Binding seen in cells or lysates may run through a third protein. Some entries that bind do so weakly or less than the wild type.

Test in all cases: co-IP; benzonase-treated nuclear extracts of HEK293 cells (mock, Bleo 30 μg/ml 1 h, 10–12 h recovery after Bleo, or IR 5 grey); IP with 2-5 μg antibody to the endogenous bait or control IgG and Protein A/G PLUS agarose; three washes with 20 mM HEPES pH 7.9, 150 mM KCl, 0.25% Triton-X-100; western blot
For assay [1], the target named is PARP1 (human (endogenous in HEK293)) (UniProt P09874).
The target in assay [2] is T1, Lig IV (human (endogenous in HEK293)) (UniProt P49917).
T1 sequence: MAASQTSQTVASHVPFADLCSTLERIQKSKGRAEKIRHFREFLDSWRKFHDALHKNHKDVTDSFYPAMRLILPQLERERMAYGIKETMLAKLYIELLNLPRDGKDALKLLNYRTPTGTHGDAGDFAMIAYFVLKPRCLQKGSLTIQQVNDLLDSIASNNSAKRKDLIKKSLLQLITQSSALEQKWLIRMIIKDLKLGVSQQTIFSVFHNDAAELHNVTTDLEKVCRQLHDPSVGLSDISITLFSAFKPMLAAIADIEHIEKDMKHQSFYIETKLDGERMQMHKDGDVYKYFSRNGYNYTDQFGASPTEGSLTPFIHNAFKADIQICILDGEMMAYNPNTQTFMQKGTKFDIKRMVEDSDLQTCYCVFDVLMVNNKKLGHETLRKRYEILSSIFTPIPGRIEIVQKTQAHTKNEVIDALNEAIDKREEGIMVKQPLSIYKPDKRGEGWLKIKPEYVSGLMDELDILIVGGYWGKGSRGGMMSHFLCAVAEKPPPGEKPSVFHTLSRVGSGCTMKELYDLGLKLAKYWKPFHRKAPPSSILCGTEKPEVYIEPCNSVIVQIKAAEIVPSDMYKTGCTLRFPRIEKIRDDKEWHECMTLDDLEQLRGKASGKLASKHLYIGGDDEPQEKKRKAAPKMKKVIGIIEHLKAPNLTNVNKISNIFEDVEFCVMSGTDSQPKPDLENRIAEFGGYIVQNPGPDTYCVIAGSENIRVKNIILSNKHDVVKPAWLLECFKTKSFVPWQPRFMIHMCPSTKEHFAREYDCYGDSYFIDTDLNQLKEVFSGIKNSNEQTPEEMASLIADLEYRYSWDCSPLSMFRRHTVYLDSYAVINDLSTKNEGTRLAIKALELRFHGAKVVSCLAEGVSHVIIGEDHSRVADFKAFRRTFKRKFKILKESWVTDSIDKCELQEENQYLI

For assay [3], the target named is 53BP1 (human (endogenous in HEK293)) (UniProt Q12888).
For assay [4], the target named is polynucleotide kinase 3′ phosphatase (human (endogenous in HEK293)) (UniProt Q96T60).

As to “polynucleotide kinase 3′ phosphatase (from UniProt Q96T60 1-521) (enzyme)”, the binding result in assay [1] is on record as “binds”.
Turning to RAD51 (from UniProt Q06609 1-339), the binding result in assay [2], in assay [3] and in assay [4] was “no binding” in each case.
As for XRCC1 (from UniProt P18887 1-633), the binding entry in assay [2] is given as “no binding”.
